Our source for the T/C and survivor count values is PubChem BioAssay AID328 (DTP/NCI, 2004).

The test concerns BDF1 mice, P388 leukemia ip, median survival T/C. In words: NCI In Vivo Anticancer Drug Screen. Data for tumor model P388 Leukemia (intraperitoneal) in B6D2F1 (BDF1) mice. The conditions noted are these: T/C endpoint: median survival time, higher T/C = longer survival. The procedure, abridged: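 Compound-treated tumour-bearing mice were compared with vehicle-treated controls. Survival was recorded, and the value is the treated-group measurement divided by the control-group measurement (T/C).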

Where [1] appears, read: dose: 200.0 mg/kg/injection, schedule: Q01DX009 (ip), vehicle: saline.
The mark [2] stands for this setting: dose: 100.0 mg/kg/injection, schedule: Q01DX009 (ip), vehicle: Klucel (hydroxypropylcellulose) (HPC).
Setting [3] is: dose: 100.0 mg/kg/injection, schedule: Q01DX009 (ip), vehicle: saline.
Setting [4] is: dose: 200.0 mg/kg/injection, schedule: Q01DX009 (ip), vehicle: Klucel (hydroxypropylcellulose) (HPC).
Where [5] appears, read: dose: 50.0 mg/kg/injection, schedule: Q01DX009 (ip), vehicle: saline with Tween-80.
The mark [6] stands for this setting: dose: 100.0 mg/kg/injection, schedule: Q01DX009 (ip), vehicle: saline with Tween-80.
[7] abbreviates: dose: 200.0 mg/kg/injection, schedule: Q01DX009 (ip), vehicle: saline with Tween-80.
[8] abbreviates: dose: 400.0 mg/kg/injection, schedule: Q01DX009 (ip), vehicle: Klucel (hydroxypropylcellulose) (HPC).
The mark [9] stands for this setting: dose: 400.0 mg/kg/injection, schedule: Q04DX003 (ip), vehicle: saline with Tween-80.

SMILES strings stand for the structures. The list is a part of this screen's results and no random one: it is rich in T/C values a quarter to a half above the control, in often repeated tests (any T/C) and in doses without a T/C. Further doses and runs are listed elsewhere. T/C gives the treated animals as a percentage of the vehicle group. Some entries give survivors of the animals treated and no T/C: the source holds a T/C of zero for them, seemingly a mark for toxic or unscored doses. Some doses without a T/C left all or most animals alive at the check, yet need not have been tolerated: the source hardly ever lists a survival T/C far under the control, and the zero likely stands for such cases as well. Counts of survivors are from the toxicity check (mostly the fifth day) where no day follows; animals may have died later. Schedule codes are those of the source, taken here to give the interval after Q, in days (D) or hours (H), and the number of doses after X. Some entries were tested several times; the values are given in rising order. Where survival is the endpoint, this PubChem deposit counts one and a half times the control or more as active, and values a quarter to a half above the control carry no call in these data; other NCI protocols may use other cut-offs. Some T/C values are followed by the survivors on the day toxicity was checked, most often the fifth; without a count, all were alive then.

Take `CC[n+]1ccc(Nc2ccc(NC(=O)c3ccc(C(=O)Nc4ccc(Nc5cc[n+](CC)c(N)n5)cc4)cc3)cc2)nc1N`: the T/C reads like this: (dose: 0.03 mg/kg/injection, schedule: Q01DX009 (ip), vehicle: saline) 127 % of control; (dose: 0.06 mg/kg/injection, schedule: Q01DX009 (ip), vehicle: saline) 131 % of control; (dose: 1.1 mg/kg/injection, schedule: Q01DX009 (ip), vehicle: saline) 140 % of control; (dose: 2.0 mg/kg/injection, schedule: Q04DX003 (ip), vehicle: saline) 145 % of control; (dose: 2.5 mg/kg/injection, schedule: Q01DX009 (ip), vehicle: saline) 134 % of control; (dose: 15.0 mg/kg/injection, schedule: Q04DX003 (ip), vehicle: saline) 140 % of control. Also, the T/C (dose: 40.0 mg/kg/injection, schedule: Q01DX009 (ip), vehicle: saline) was 140 % of control. The survivor count (dose: 200.0 mg/kg/injection, schedule: Q04DX003 (ip), vehicle: saline) is given as 5 of 6.

On to `CC(=O)OC1C=COC(C)C1OC(C)=O` (configuration not stated), for which the survivor count runs as follows: under setting [1], 5 of 6; (dose: 400.0 mg/kg/injection, schedule: Q01DX009 (ip), vehicle: saline) 3 of 6.

For `COC(=O)Nc1cccc(-c2nc3ccc(NC(=O)OC)cc3c(=O)n2-c2ccccc2)c1`, the T/C reads like this: (dose: 25.0 mg/kg/injection, schedule: Q01DX009 (ip), vehicle: Klucel (hydroxypropylcellulose) (HPC)) 137 % of control; (dose: 200.0 mg/kg/injection, schedule: Q01DX009 (oral), vehicle: Klucel (hydroxypropylcellulose) (HPC)) 125 % of control; (dose: 400.0 mg/kg/injection, schedule: Q01DX009 (oral), vehicle: Klucel (hydroxypropylcellulose) (HPC)) 131 % of control. Besides, the survivor count is recorded as 5 of 6 under setting [2]; 5 of 7 under setting [3]; 3 of 7 (dose: 150.0 mg/kg/injection, schedule: Q01DX009 (ip), vehicle: saline); 1 of 6 under setting [4]; 6 of 7 under setting [1].

Take `Nc1ccccc1SC1=C(Cl)C(=O)c2ccccc2C1=O`: the survivor count is, setting by setting: under setting [5], 5 of 6; under setting [6], 4 of 6; under setting [7], 0 of 6.

With `c1cc[n+](CCSCCSCC[n+]2ccccc2)cc1`, for the setting “dose: 4.6 mg/kg/injection, schedule: Q04DX003 (ip), vehicle: saline”, the T/C was 127 % of control. For the same compound, the survivor count is, setting by setting: (dose: 6.9 mg/kg/injection, schedule: Q04DX003 (ip), vehicle: saline) 3 of 6; (dose: 14.0 mg/kg/injection, schedule: Q01DX009 (ip), vehicle: saline) 4 of 6; (dose: 20.0 mg/kg/injection, schedule: Q04DX003 (ip), vehicle: saline) 0 of 6; (dose: 21.0 mg/kg/injection, schedule: Q01DX009 (ip), vehicle: saline) 0 of 6; (dose: 30.0 mg/kg/injection, schedule: Q04DX003 (ip), vehicle: saline) 1 of 6.

Turning to `CCCN1CSC(=S)N(CCC)C1`, the T/C by setting is: under setting [4], 130 % of control [5 of 6 alive]; under setting [8], 130 % of control [5 of 6 alive].

As for `CC1CN=C(c2ccc(NC(=O)c3ccc(C(=O)Nc4ccc(C5=NCC(C)N5)cc4)c(N)c3)cc2)N1` (configuration not stated), the T/C reads like this: (dose: 6.7 mg/kg/injection, schedule: Q04DX003 (ip), vehicle: saline with Tween-80) 136 % of control; (dose: 10.0 mg/kg/injection, schedule: Q04DX003 (ip), vehicle: saline with Tween-80) 145 % of control.

Regarding `CC(=O)N1C(=O)NC(=O)C1(C)c1ccco1` (configuration not stated), the survivor count reads like this: under setting [5], 6 of 6; under setting [9], 4 of 6.

In the case of `Nc1ccc(Nc2ccccc2)c(S(=O)(=O)O)c1`, the T/C is 133 % of control under setting [3] and 142 % of control under setting [1].

As to `CS(=O)(=O)OCCN1CCC2(CC1)SSC1(CCN(CCOS(C)(=O)=O)CC1)S2`, the T/C by setting is: (dose: 5.0 mg/kg/injection, schedule: Q01DX009 (ip), vehicle: saline) 144 % of control; (dose: 6.25 mg/kg/injection, schedule: Q01DX009 (ip), vehicle: saline) 136 % of control [5 of 6 alive]; (dose: 12.5 mg/kg/injection, schedule: Q04DX003 (ip), vehicle: saline) 130 % of control. Moreover, the survivor count is, setting by setting: (dose: 20.0 mg/kg/injection, schedule: Q01DX009 (ip), vehicle: saline) 1 of 6; (dose: 21.0 mg/kg/injection, schedule: Q04DX003 (ip), vehicle: saline) 3 of 6; (dose: 25.0 mg/kg/injection, schedule: Q01DX009 (ip), vehicle: saline) 0 of 6; (dose: 25.0 mg/kg/injection, schedule: Q04DX003 (ip), vehicle: saline) 6 of 6; (dose: 50.0 mg/kg/injection, schedule: Q04DX003 (ip), vehicle: saline) 0 of 6.

On to `CO[C@H]1C[C@H](O[C@H]2CC[C@]3(C=O)[C@H]4CC[C@]5(C)[C@@H](C6=CC(=O)OC6)CC[C@]5(O)[C@@H]4CC[C@]3(O)C2)O[C@H](C)[C@H]1O`, for which the survivor count was 3 of 6 (dose: 10.0 mg/kg/injection, schedule: Q01DX010 (ip), vehicle: steroid suspending solution) and 0 of 6 (dose: 20.0 mg/kg/injection, schedule: Q01DX010 (ip), vehicle: steroid suspending solution).

As to `CC1(C)N=C(N)N=C(N)N1c1ccc(-c2ccccc2)cc1`, the survivor count by setting is: under setting [2], 0 of 6; under setting [4], 0 of 6.

As to `CCC(C#N)(c1ccccc1)c1ccccc1`, the survivor count under setting [4] was 6 of 6.

On to `O=C1CC2OCC=C3CN4CCC56c7ccccc7N1C5C2C3CC46` (configuration not stated), for which the survivor count is on record as 0 of 6 (dose: 3.13 mg/kg/injection, schedule: Q01DX009 (ip), vehicle: saline with Tween-80); 0 of 6 (dose: 6.25 mg/kg/injection, schedule: Q01DX009 (ip), vehicle: saline with Tween-80); 0 of 6 (dose: 12.5 mg/kg/injection, schedule: Q01DX009 (ip), vehicle: saline with Tween-80).

On to `O=C1C=C(N2CC2)C(=O)C(N2CC2)=C1N1CC1`, for which the survivor count is, setting by setting: (dose: 0.04 mg/kg/injection, schedule: Q01DX009 (ip), vehicle: saline) 5 of 6; (dose: 0.08 mg/kg/injection, schedule: Q01DX009 (ip), vehicle: saline) 1 of 6 and 6 of 6; (dose: 0.16 mg/kg/injection, schedule: Q01DX009 (ip), vehicle: saline) 2 of 6 and 4 of 6; (dose: 0.32 mg/kg/injection, schedule: Q01DX009 (ip), vehicle: saline) 0 of 6 and 1 of 6.

With `O=C1OC(c2ccccc2)(c2ccccc2)c2ccccc21`, under setting [2], the T/C is 136 % of control and the survivor count is 6 of 6.

`N#CC(O)c1ccccc1` (configuration not stated): the survivor count (dose: 20.0 mg/kg/injection, schedule: Q01DX010 (ip), vehicle: acetone) is listed as 0 of 6.

In the case of `O=C1CC(SC(=S)C2CCCC2=O)C(=O)O1` (configuration not stated), the survivor count is listed as 4 of 6 under setting [6] and 0 of 6 under setting [7].

On to `CCOC(C)C(/C=N/NC(N)=S)=NNC(N)=S` (configuration not stated), for which the T/C under setting [2] is 127 and 135 % of control; the T/C under setting [8] was 127 % of control. Under setting [9], the survivor count is 0 of 6.

With `C=C(C)C(=O)OC1CC2=CC(CC3(C)OC3C3OC(=O)C(=C)C13)OC2=O` (configuration not stated), the T/C (dose: 9.0 mg/kg/injection, schedule: Q01DX009 (ip), vehicle: Klucel (hydroxypropylcellulose) (HPC)) is 126 % of control.

Consider `COc1cc2c(cc1OC)[C@H]1CNC[C@H]1[C@@H](c1ccccc1)C2`, for which the T/C (dose: 200.0 mg/kg/injection, schedule: Q01DX001 (ip), vehicle: Klucel (hydroxypropylcellulose) (HPC)) is 145 % of control. The survivor count (dose: 400.0 mg/kg/injection, schedule: Q01DX001 (ip), vehicle: Klucel (hydroxypropylcellulose) (HPC)) was 0 of 6 and 1 of 6.

For the compound `CC(=O)Nc1c(Cl)cc2c(c1Cl)Cc1cc([N+](=O)[O-])ccc1-2`, the survivor count under setting [9] was 6 of 6.
